# The list shows a part of the results.
# Columns and labels:
# Test in all cases: glycan array binding signal (z-score within array); higher = stronger binding
# Conditions in all cases: glycan notation: IUPAC condensed, linker removed
# Gal3S4S(b1-4)GlcNAc = target: Gal3S4S(b1-4)GlcNAc
# Method in brief: (§1)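 The Consortium for Functional Glycomics database supplied 3228 glycan arrays, of which those lacking an available protein sequence were dropped. The binding signal, a within-array Z-score, was averaged across arrays of the same protein sequence and across linkers. Negative scores can be read as non-binding.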
# Gal3S6S(b1-4)GlcNAc = target: Gal3S6S(b1-4)GlcNAc
# Method in brief: as §1
# Gal3S6S(b1-4)GlcNAc6S = target: Gal3S6S(b1-4)GlcNAc6S
# Method in brief: as §1
# Gal4S(b1-4)GlcNAc = target: Gal4S(b1-4)GlcNAc
# Method in brief: as §1
# Gal4S6S(b1-4)GlcNAc = target: Gal4S6S(b1-4)GlcNAc
# Method in brief: as §1
# Gal6P(b1-4)GlcNAc = target: Gal6P(b1-4)GlcNAc
# Method in brief: as §1
# Gal6S(b1-3)GlcNAc = target: Gal6S(b1-3)GlcNAc
# Method in brief: as §1
# Gal6S(b1-3)GlcNAc6S = target: Gal6S(b1-3)GlcNAc6S
# Method in brief: as §1
# Gal6S(b1-4)Glc = target: Gal6S(b1-4)Glc
# Method in brief: as §1
# Gal6S(b1-4)Glc6S = target: Gal6S(b1-4)Glc6S
# Method in brief: as §1
# Gal6S(b1-4)GlcNAc = target: Gal6S(b1-4)GlcNAc
# Method in brief: as §1
# Gal6S(b1-4)GlcNAc6S = target: Gal6S(b1-4)GlcNAc6S
# Method in brief: as §1
# GalNAc(a1-3)Gal = target: GalNAc(a1-3)Gal
# Method in brief: as §1
# GalNAc(a1-3)GalNAc = target: GalNAc(a1-3)GalNAc
# Method in brief: as §1
# [1] = target: GalNAc(a1-3)GalNAc(b1-3)Gal(a1-4)Gal(b1-4)Glc
# Method in brief: as §1
# [2] = target: GalNAc(a1-3)GalNAc(b1-3)Gal(a1-4)Gal(b1-4)GlcNAc
# Method in brief: as §1
# GalNAc(b1-3)Gal = target: GalNAc(b1-3)Gal
# Method in brief: as §1
# [3] = target: GalNAc(b1-3)Gal(a1-4)Gal(b1-4)GlcNAc
# Method in brief: as §1
# [4] = target: GalNAc(b1-3)Gal(a1-4)Gal(b1-4)GlcNAc(b1-3)Gal(b1-4)Glc
# Method in brief: as §1
# [5] = target: GalNAc(b1-3)Gal(a1-6)Gal(b1-4)Glc
# Method in brief: as §1
# GalNAc(b1-3)GalNAc = target: GalNAc(b1-3)GalNAc
# Method in brief: as §1
# GalNAc(b1-3)GlcNAc = target: GalNAc(b1-3)GlcNAc
# Method in brief: as §1
# GalNAc(b1-4)Gal(b1-4)Glc = target: GalNAc(b1-4)Gal(b1-4)Glc
# Method in brief: as §1
# GalNAc(b1-4)GlcNAc = target: GalNAc(b1-4)GlcNAc
# Method in brief: as §1
# [6] = target: GalNAc(b1-4)GlcNAc(b1-2)Man
# Method in brief: as §1
# [7] = target: GalNAc(b1-4)GlcNAc(b1-2)Man(a1-3)[GalNAc(b1-4)GlcNAc(b1-2)Man(a1-6)]Man(b1-4)GlcNAc(b1-4)GlcNAc
# Method in brief: as §1
# [8] = target: GalNAc(b1-4)GlcNAc(b1-3)GalNAc(b1-4)GlcNAc
# Method in brief: as §1
# GalNAc(b1-4)GlcNAc6S = target: GalNAc(b1-4)GlcNAc6S
# Method in brief: as §1
# GalNAc(b1-6)GalNAc = target: GalNAc(b1-6)GalNAc
# Method in brief: as §1
# GalNAc3S(b1-4)GlcNAc = target: GalNAc3S(b1-4)GlcNAc
# Method in brief: as §1
# GalNAc3S(b1-4)GlcNAc3S = target: GalNAc3S(b1-4)GlcNAc3S
# Method in brief: as §1
# [9] = target: GalNAc3S(b1-4)[Fuc(a1-3)]GlcNAc
# Method in brief: as §1
# GalNAc4S6S(b1-4)GlcNAc = target: GalNAc4S6S(b1-4)GlcNAc
# Method in brief: as §1
# GalNAc6S(b1-4)GlcNAc = target: GalNAc6S(b1-4)GlcNAc
# Method in brief: as §1
# Glc(a1-4)Glc = target: Glc(a1-4)Glc
# Method in brief: as §1
# [10] = target: Glc(a1-4)Glc(a1-4)Glc(a1-4)Glc
# Method in brief: as §1
# Glc(a1-6)Glc(a1-6)Glc = target: Glc(a1-6)Glc(a1-6)Glc
# Method in brief: as §1
# [11] = target: Glc(a1-6)Glc(a1-6)Glc(a1-6)Glc
# Method in brief: as §1
# Glc(b1-4)Glc = target: Glc(b1-4)Glc
# Method in brief: as §1
# Glc(b1-6)Glc = target: Glc(b1-6)Glc
# Method in brief: as §1
# GlcA(b1-3)Gal = target: GlcA(b1-3)Gal
# Method in brief: as §1
# GlcA(b1-3)GlcNAc = target: GlcA(b1-3)GlcNAc
# Method in brief: as §1
# GlcA(b1-6)Gal = target: GlcA(b1-6)Gal
# Method in brief: as §1
# [12] = target: GlcA3S(b1-3)Gal(b1-4)GlcNAc(b1-2)Man
# Method in brief: as §1
# [13] = target: GlcA3S(b1-3)Gal(b1-4)GlcNAc(b1-3)Gal(b1-4)Glc
# Method in brief: as §1
binder,measurement,setting,value
"Endo180d1-D4 (Homo sapiens), Q9UBG0 (protein) MGPGRPAPAPWPRHLLRCVLLLGCLHLGRPGAPGDAALPEPNVFLIFSHGLQGCLEAQGGQVRVTPACNTSLPAQRWKWVSRNRLFNLGTMQCLGTGWPGTNTTASLGMYECDREALNLRWHCRTLGDQLSLLLGARTSNISKPGTLERGDQTRSGQWRIYGSEEDLCALPYHEVYTIQGNSHGKPCTIPFKYDNQWFHGCTSTGREDGHLWCATTQDYGKDERWGFCPIKSNDCETFWDKDQLTDSCYQFNFQSTLSWREAWASCEQQGADLLSITEIHEQTYINGLLTGYSSTLWIGLNDLDTSGGWQWSDNSPLKYLNWESDQPDNPSEENCGVIRTESSGGWQNRDCSIALPYVCKKKPNATAEPTPPDRWANVKVECEPSWQPFQGHCYRLQAEKRSWQESKKACLRGGGDLVSIHSMAELEFITKQIKQEVEELWIGLNDLKLQMNFEWSDGSLVSFTHWHPFEPNNFRDSLEDCVTIWGPEGRWNDSPCNQSLPSICKKAGQLSQGAAEEDHGCRKGWTWHSPSCYWLGEDQVTYSEARRLCTDHGSQLVTITNRFEQAFVSSLIYNWEGEYFWTALQDLNSTGSFFWLSGDEVMYTHWNRDQPGYSRGGCVALATGSAMGLWEVKNCTSFRARYICRQSLGTPVTPELPGPDPTPSLTGSCPQGWASDTKLRYCYKVFSSERLQDKKSWVQAQGACQELGAQLLSLASYEEEHFVANMLNKIFGESEPEIHEQHWFWIGLNRRDPRGGQSWRWSDGVGFSYHNFDRSRHDDDDIRGCAVLDLASLQWVAMQCDTQLDWICKIPRGTDVREPDDSPQGRREWLRFQEAEYKFFEHHSTWAQAQRICTWFQAELTSVHSQAELDFLSHNLQKFSRAQEQHWWIGLHTSESDGRFRWTDGSIINFISWAPGKPRPVGKDKKCVYMTASREDWGDQRCLTALPYICKRSNVTKETQPPDLPTTALGGCPSDWIQFLNKCFQVQGQEPQSRVKWSEAQFSCEQQEAQLVTITNPLEQAFITASLPNVTFDLWIGLHASQRDFQWVEQEPLMYANWAPGEPSGPSPAPSGNKPTSCAVVLHSPSAHFTGRWDDRSCTEETHGFICQKGTDPSLSPSPAALPPAPGTELSYLNGTFRLLQKPLRWHDALLLCESHNASLAYVPDPYTQAFLTQAARGLRTPLWIGLAGEEGSRRYSWVSEEPLNYVGWQDGEPQQPGGCTYVDVDGAWRTTSCDTKLQGAVCGVSSGPPPPRRISYHGSCPQGLADSAWIPFREHCYSFHMELLLGHKEARQRCQRAGGAVLSILDEMENVFVWEHLQSYEGQSRGAWLGMNFNPKGGTLVWQDNTAVNYSNWGPPGLGPSMLSHNSCYWIQSNSGLWRPGACTNITMGVVCKLPRAEQSSFSPSALPENPAALVVVLMAVLLLLALLTAALILYRRRQSIERGAFEGARYSRSSSSPTEATEKNILVSDMEMNEQQE",glycan array binding signal (z-score),Gal3S4S(b1-4)GlcNAc,-0.68
same,glycan array binding signal (z-score),Gal3S6S(b1-4)GlcNAc,0.111
same,glycan array binding signal (z-score),Gal3S6S(b1-4)GlcNAc6S,4.83
same,glycan array binding signal (z-score),Gal4S(b1-4)GlcNAc,-0.66
same,glycan array binding signal (z-score),Gal4S6S(b1-4)GlcNAc,0.265
same,glycan array binding signal (z-score),Gal6P(b1-4)GlcNAc,-0.882
same,glycan array binding signal (z-score),Gal6S(b1-3)GlcNAc,1.72
same,glycan array binding signal (z-score),Gal6S(b1-3)GlcNAc6S,-1.08
same,glycan array binding signal (z-score),Gal6S(b1-4)Glc,-0.154
same,glycan array binding signal (z-score),Gal6S(b1-4)Glc6S,-0.094
same,glycan array binding signal (z-score),Gal6S(b1-4)GlcNAc,-0.001
same,glycan array binding signal (z-score),Gal6S(b1-4)GlcNAc6S,2.48
same,glycan array binding signal (z-score),GalNAc(a1-3)Gal,-0.605
same,glycan array binding signal (z-score),GalNAc(a1-3)GalNAc,0.377
same,glycan array binding signal (z-score),[1],0.74
same,glycan array binding signal (z-score),[2],-0.306
same,glycan array binding signal (z-score),GalNAc(b1-3)Gal,-0.876
same,glycan array binding signal (z-score),[3],0.337
same,glycan array binding signal (z-score),[4],-0.747
same,glycan array binding signal (z-score),[5],-1.31
same,glycan array binding signal (z-score),GalNAc(b1-3)GalNAc,0.186
same,glycan array binding signal (z-score),GalNAc(b1-3)GlcNAc,0.816
same,glycan array binding signal (z-score),GalNAc(b1-4)Gal(b1-4)Glc,-0.247
same,glycan array binding signal (z-score),GalNAc(b1-4)GlcNAc,0.273
same,glycan array binding signal (z-score),[6],-0.808
same,glycan array binding signal (z-score),[7],-1.94
same,glycan array binding signal (z-score),[8],-0.859
same,glycan array binding signal (z-score),GalNAc(b1-4)GlcNAc6S,-0.478
same,glycan array binding signal (z-score),GalNAc(b1-6)GalNAc,-0.31
same,glycan array binding signal (z-score),GalNAc3S(b1-4)GlcNAc,-0.85
same,glycan array binding signal (z-score),GalNAc3S(b1-4)GlcNAc3S,1.66
same,glycan array binding signal (z-score),[9],0.231
same,glycan array binding signal (z-score),GalNAc4S6S(b1-4)GlcNAc,3.2
same,glycan array binding signal (z-score),GalNAc6S(b1-4)GlcNAc,-0.385
same,glycan array binding signal (z-score),Glc(a1-4)Glc,-0.445
same,glycan array binding signal (z-score),[10],0.29
same,glycan array binding signal (z-score),Glc(a1-6)Glc(a1-6)Glc,0.215
same,glycan array binding signal (z-score),[11],-0.88
same,glycan array binding signal (z-score),Glc(b1-4)Glc,-1.31
same,glycan array binding signal (z-score),Glc(b1-6)Glc,-0.071
same,glycan array binding signal (z-score),GlcA(b1-3)Gal,1.06
same,glycan array binding signal (z-score),GlcA(b1-3)GlcNAc,0.23
same,glycan array binding signal (z-score),GlcA(b1-6)Gal,-0.321
same,glycan array binding signal (z-score),[12],-0.037
same,glycan array binding signal (z-score),[13],0.123

# Random excerpt: 2 entries already listed, in no set order.
binder,measurement,setting,value
"Endo180d1-D4 (Homo sapiens), Q9UBG0 (protein) MGPGRPAPAPWPRHLLRCVLLLGCLHLGRPGAPGDAALPEPNVFLIFSHGLQGCLEAQGGQVRVTPACNTSLPAQRWKWVSRNRLFNLGTMQCLGTGWPGTNTTASLGMYECDREALNLRWHCRTLGDQLSLLLGARTSNISKPGTLERGDQTRSGQWRIYGSEEDLCALPYHEVYTIQGNSHGKPCTIPFKYDNQWFHGCTSTGREDGHLWCATTQDYGKDERWGFCPIKSNDCETFWDKDQLTDSCYQFNFQSTLSWREAWASCEQQGADLLSITEIHEQTYINGLLTGYSSTLWIGLNDLDTSGGWQWSDNSPLKYLNWESDQPDNPSEENCGVIRTESSGGWQNRDCSIALPYVCKKKPNATAEPTPPDRWANVKVECEPSWQPFQGHCYRLQAEKRSWQESKKACLRGGGDLVSIHSMAELEFITKQIKQEVEELWIGLNDLKLQMNFEWSDGSLVSFTHWHPFEPNNFRDSLEDCVTIWGPEGRWNDSPCNQSLPSICKKAGQLSQGAAEEDHGCRKGWTWHSPSCYWLGEDQVTYSEARRLCTDHGSQLVTITNRFEQAFVSSLIYNWEGEYFWTALQDLNSTGSFFWLSGDEVMYTHWNRDQPGYSRGGCVALATGSAMGLWEVKNCTSFRARYICRQSLGTPVTPELPGPDPTPSLTGSCPQGWASDTKLRYCYKVFSSERLQDKKSWVQAQGACQELGAQLLSLASYEEEHFVANMLNKIFGESEPEIHEQHWFWIGLNRRDPRGGQSWRWSDGVGFSYHNFDRSRHDDDDIRGCAVLDLASLQWVAMQCDTQLDWICKIPRGTDVREPDDSPQGRREWLRFQEAEYKFFEHHSTWAQAQRICTWFQAELTSVHSQAELDFLSHNLQKFSRAQEQHWWIGLHTSESDGRFRWTDGSIINFISWAPGKPRPVGKDKKCVYMTASREDWGDQRCLTALPYICKRSNVTKETQPPDLPTTALGGCPSDWIQFLNKCFQVQGQEPQSRVKWSEAQFSCEQQEAQLVTITNPLEQAFITASLPNVTFDLWIGLHASQRDFQWVEQEPLMYANWAPGEPSGPSPAPSGNKPTSCAVVLHSPSAHFTGRWDDRSCTEETHGFICQKGTDPSLSPSPAALPPAPGTELSYLNGTFRLLQKPLRWHDALLLCESHNASLAYVPDPYTQAFLTQAARGLRTPLWIGLAGEEGSRRYSWVSEEPLNYVGWQDGEPQQPGGCTYVDVDGAWRTTSCDTKLQGAVCGVSSGPPPPRRISYHGSCPQGLADSAWIPFREHCYSFHMELLLGHKEARQRCQRAGGAVLSILDEMENVFVWEHLQSYEGQSRGAWLGMNFNPKGGTLVWQDNTAVNYSNWGPPGLGPSMLSHNSCYWIQSNSGLWRPGACTNITMGVVCKLPRAEQSSFSPSALPENPAALVVVLMAVLLLLALLTAALILYRRRQSIERGAFEGARYSRSSSSPTEATEKNILVSDMEMNEQQE",glycan array binding signal (z-score),GalNAc(b1-4)GlcNAc6S,-0.478
same,glycan array binding signal (z-score),GalNAc(b1-3)GalNAc,0.186
